The supplement of paper PMC10849652
The list shows a part of the results.

By UniProt entry, the sequences of proteins in these tests, tags left out. Where a name states a change or a piece, a line headed by the entry shows the natural chain unless it says otherwise.
UniProt Q6Y1H2: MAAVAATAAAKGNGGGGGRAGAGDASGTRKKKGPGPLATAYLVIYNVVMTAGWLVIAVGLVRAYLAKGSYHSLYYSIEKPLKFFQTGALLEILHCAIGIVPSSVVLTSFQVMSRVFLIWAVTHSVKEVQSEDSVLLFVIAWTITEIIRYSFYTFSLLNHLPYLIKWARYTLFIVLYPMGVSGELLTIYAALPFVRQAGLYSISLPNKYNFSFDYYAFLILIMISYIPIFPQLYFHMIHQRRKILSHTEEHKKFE
UniProt P78417: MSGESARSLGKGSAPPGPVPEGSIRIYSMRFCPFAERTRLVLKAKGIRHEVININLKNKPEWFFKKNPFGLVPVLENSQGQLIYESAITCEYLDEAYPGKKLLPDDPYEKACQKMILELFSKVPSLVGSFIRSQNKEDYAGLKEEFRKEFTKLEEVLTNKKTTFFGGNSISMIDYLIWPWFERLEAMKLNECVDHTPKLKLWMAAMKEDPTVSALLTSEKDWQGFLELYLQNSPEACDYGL
UniProt Q6IC98: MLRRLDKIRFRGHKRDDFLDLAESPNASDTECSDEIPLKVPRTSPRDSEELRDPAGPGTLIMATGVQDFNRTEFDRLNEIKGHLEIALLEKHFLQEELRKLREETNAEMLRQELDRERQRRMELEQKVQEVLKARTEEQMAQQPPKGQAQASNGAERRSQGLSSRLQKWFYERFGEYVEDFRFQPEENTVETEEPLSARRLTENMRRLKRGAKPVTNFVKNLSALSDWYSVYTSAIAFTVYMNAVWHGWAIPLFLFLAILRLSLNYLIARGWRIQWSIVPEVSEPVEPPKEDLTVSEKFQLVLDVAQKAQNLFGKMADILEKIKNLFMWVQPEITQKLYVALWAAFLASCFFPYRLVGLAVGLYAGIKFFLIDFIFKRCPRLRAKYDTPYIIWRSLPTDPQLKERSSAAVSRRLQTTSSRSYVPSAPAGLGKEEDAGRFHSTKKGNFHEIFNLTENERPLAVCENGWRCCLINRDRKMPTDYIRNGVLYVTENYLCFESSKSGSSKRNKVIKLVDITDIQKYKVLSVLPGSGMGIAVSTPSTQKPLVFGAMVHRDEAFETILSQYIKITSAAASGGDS
UniProt P69905, whole entry, looked up: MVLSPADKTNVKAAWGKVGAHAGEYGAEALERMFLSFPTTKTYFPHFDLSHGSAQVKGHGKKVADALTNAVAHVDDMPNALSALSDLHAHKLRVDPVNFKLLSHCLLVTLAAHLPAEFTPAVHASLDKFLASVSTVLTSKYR
UniProt P00390: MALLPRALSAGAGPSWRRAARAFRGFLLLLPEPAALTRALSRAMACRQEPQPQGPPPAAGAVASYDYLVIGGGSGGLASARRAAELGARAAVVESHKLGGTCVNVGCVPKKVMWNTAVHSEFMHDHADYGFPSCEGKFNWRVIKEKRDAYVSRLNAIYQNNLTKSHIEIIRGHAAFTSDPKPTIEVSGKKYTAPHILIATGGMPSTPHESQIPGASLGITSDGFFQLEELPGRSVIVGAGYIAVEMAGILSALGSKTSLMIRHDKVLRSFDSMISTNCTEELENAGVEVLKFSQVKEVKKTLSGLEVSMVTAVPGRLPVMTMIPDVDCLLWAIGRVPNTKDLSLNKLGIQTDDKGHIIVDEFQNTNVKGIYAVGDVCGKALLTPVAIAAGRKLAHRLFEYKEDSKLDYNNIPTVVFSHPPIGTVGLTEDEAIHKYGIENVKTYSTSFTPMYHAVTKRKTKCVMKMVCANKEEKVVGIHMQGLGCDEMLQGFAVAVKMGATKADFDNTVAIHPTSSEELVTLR
UniProt O95479: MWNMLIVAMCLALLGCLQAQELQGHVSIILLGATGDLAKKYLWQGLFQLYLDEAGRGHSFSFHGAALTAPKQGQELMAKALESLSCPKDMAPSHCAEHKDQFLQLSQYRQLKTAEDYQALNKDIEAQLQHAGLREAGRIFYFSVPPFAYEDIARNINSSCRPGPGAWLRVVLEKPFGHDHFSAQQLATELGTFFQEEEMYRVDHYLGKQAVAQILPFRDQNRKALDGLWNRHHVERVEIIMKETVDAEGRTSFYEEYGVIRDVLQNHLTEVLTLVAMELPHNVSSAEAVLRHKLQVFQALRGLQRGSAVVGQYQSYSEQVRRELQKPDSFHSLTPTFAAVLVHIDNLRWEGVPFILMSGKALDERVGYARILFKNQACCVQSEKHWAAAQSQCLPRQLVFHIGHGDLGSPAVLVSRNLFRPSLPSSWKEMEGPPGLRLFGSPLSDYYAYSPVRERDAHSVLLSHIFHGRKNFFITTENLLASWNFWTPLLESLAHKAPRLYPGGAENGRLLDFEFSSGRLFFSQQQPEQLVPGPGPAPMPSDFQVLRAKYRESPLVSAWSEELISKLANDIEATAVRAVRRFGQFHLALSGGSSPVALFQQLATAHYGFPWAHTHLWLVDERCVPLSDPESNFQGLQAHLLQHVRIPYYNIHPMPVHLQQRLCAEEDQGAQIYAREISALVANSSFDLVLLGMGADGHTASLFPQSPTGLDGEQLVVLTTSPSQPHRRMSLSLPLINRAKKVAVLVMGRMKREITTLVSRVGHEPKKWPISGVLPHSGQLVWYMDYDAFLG
UniProt Q9Y450, whole entry, looked up: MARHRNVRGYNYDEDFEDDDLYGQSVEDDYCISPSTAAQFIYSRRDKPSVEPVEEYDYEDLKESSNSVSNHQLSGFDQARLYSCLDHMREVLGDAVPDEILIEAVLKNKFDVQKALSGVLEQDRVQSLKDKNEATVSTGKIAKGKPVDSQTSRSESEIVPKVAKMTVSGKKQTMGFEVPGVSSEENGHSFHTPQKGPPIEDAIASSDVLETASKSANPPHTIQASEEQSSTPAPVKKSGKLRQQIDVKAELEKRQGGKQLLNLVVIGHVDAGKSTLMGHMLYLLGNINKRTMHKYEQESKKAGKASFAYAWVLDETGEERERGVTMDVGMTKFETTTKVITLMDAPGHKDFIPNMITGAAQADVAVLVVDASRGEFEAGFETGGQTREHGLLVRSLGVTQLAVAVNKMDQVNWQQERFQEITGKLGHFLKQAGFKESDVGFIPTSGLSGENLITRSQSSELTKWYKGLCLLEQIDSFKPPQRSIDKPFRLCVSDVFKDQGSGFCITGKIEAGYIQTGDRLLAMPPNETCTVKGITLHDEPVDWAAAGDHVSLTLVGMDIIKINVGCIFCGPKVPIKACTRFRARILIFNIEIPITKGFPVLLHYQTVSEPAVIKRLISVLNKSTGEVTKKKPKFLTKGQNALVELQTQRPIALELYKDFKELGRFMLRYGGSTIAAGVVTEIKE
UniProt Q96CP6, whole entry, looked up: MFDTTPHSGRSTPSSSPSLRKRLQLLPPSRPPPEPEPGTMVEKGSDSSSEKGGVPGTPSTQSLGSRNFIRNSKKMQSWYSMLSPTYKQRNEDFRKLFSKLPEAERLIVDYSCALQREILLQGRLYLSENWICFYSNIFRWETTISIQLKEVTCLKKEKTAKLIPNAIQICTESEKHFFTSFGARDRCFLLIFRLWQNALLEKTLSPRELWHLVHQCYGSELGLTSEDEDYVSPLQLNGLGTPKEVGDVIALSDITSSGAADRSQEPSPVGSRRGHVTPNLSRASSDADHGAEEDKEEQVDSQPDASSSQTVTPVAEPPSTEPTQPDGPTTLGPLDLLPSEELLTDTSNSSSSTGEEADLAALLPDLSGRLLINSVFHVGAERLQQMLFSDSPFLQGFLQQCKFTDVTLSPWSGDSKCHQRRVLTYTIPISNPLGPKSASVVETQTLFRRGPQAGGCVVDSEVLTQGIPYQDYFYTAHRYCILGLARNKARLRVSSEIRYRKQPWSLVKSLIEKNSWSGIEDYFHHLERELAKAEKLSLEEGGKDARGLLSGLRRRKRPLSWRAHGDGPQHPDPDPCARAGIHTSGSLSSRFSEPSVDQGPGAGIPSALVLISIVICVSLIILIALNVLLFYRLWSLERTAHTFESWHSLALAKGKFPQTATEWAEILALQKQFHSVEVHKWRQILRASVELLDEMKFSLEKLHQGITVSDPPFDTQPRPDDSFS
UniProt O60443: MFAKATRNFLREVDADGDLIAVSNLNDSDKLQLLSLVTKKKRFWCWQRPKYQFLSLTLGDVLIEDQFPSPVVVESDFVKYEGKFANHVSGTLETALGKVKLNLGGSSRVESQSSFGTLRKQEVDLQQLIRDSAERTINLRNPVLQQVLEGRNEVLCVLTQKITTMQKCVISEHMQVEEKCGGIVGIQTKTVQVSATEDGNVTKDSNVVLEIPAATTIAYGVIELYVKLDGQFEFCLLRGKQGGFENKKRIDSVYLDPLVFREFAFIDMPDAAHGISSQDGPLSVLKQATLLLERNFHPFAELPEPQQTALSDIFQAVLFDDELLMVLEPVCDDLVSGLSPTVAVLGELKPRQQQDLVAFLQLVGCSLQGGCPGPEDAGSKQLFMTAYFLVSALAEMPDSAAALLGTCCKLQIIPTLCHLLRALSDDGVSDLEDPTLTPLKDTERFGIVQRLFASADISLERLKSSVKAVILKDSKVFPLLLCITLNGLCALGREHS
UniProt Q8TD30: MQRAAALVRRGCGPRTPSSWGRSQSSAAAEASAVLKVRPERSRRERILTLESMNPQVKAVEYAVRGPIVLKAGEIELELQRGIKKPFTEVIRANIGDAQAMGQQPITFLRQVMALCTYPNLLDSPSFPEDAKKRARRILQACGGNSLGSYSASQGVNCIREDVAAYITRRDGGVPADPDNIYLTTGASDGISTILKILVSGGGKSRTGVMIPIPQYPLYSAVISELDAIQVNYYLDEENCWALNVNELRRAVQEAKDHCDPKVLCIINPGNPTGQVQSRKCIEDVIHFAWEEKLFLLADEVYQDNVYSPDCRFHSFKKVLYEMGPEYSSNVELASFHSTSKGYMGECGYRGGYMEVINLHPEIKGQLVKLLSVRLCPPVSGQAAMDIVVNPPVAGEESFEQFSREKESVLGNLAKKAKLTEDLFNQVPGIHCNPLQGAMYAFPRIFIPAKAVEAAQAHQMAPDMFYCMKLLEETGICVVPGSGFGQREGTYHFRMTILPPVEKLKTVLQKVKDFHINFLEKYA
UniProt Q5JVS0: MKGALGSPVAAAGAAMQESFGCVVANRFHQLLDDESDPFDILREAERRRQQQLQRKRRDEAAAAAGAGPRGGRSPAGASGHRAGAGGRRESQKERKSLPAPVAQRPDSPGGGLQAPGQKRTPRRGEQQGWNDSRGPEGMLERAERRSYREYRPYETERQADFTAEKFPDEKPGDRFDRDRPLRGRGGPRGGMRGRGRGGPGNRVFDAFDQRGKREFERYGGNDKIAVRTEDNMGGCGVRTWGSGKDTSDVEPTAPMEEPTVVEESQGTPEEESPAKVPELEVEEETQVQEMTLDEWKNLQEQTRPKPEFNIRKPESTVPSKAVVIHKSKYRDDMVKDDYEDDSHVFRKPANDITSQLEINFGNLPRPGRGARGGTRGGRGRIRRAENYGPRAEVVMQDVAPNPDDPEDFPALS
UniProt O43824: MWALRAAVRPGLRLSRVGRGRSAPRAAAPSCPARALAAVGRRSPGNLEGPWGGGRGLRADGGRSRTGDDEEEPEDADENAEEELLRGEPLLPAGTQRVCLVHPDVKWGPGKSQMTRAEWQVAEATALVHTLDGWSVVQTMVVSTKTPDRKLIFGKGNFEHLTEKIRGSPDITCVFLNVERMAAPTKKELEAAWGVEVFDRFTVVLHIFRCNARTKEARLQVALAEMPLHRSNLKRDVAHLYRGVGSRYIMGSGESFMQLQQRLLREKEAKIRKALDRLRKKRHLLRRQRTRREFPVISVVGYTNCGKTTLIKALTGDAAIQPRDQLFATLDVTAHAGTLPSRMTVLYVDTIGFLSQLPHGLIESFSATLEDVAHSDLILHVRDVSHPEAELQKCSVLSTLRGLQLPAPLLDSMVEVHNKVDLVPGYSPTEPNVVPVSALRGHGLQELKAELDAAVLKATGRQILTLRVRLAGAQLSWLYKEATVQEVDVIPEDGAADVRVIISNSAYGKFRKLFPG
UniProt P42357: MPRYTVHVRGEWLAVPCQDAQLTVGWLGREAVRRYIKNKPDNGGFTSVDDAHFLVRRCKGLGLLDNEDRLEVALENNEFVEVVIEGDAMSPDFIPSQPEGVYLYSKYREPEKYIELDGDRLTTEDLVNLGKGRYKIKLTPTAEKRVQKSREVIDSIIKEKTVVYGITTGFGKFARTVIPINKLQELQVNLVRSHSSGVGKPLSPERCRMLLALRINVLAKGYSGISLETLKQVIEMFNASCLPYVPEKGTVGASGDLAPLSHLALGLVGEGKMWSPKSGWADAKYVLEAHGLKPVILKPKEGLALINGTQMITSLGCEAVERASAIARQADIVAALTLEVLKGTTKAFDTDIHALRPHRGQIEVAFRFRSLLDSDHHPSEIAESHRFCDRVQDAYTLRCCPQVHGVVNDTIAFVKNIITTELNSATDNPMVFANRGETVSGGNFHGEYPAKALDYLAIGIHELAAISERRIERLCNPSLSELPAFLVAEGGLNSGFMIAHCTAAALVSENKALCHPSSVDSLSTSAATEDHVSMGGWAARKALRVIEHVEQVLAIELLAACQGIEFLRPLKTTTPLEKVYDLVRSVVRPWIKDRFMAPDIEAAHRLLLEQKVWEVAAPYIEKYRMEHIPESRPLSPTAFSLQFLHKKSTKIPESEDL

Assays:
Assay in all cases: log2 fold change, soluble protein after heating vs DMSO (PISA); higher = thermal stabilisation; K562 lysate, 10 uM; active = over 0.2 and 3.5 SD of the protein, either way, in both replicates (recomputed)
erlotinib = compound: C#Cc1cccc(Nc2ncnc3cc(OCCOC)c(OCCOC)cc23)c1 [erlotinib]
Procedure, shortened: (§1)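 Soluble protein was defined as the supernatant remaining after 21,000xg for 90 min, following pooling of heated aliquots and adjustment to 0.5% NP-40 at 4°C. Before that, crude K562 extract at 1 mg/mL protein in PBS pH 7.4 with 1 mM MgCl2 was treated with 10 μM compound for 30 min and heated for 3 min across 48°C-58°C. Quantification used TMTpro 16plex LC-MS/MS with channel sums equalised, and values are log-two fold changes in thermal stability relative to solvent controls from duplicates.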

[1] = compound: C/C(=N\NC(=O)C1=CC(=CC=C1)S(=O)(=O)N2CCOCC2)/C3=C(C=CC(=C3)Cl)O
Procedure, shortened: as §1

[2] = compound: C1=CC(=CC=C1C2=NC3=C(N2)C=C(C=C3)C(=O)N)OC4=CC=C(C=C4)Cl
Procedure, shortened: as §1

[3] = compound: C1=CC2=C(C=CC(=C2)/C=C\3/C(=O)NC(=NCC4=CC=CS4)S3)N=C1
Procedure, shortened: as §1

[4] = compound: C1=CC2=NC=CN=C2C=C1/C=C/3\C(=O)NC(=O)S3
Procedure, shortened: as §1

[5] = compound: C1=CC=C2C(=C1)C3=NNC4=CC=CC(=C43)C2=O
Procedure, shortened: as §1

[6] = compound: C1CCN(C1)C(=O)NC2=CC=CC(=C2)NC3=NC=C(C(=N3)NCCC4=CN=CN4)Br
Procedure, shortened: as §1

[7] = compound: C1CN(CCC1(CC2=CC=C(C=C2)Cl)N)C3=NC=NC4=C3C=CN4
Procedure, shortened: as §1

[8] = compound: C1=CC=C(C=C1)C2=NC(=C(N2)C3=CC=NC=C3)C4=CC(=C(C=C4)Cl)O
Procedure, shortened: as §1

IRAK-1-4 Inhibitor I = compound: C1COCCN1CCN2C3=CC=CC=C3N=C2NC(=O)C4=CC(=CC=C4)[N+](=O)[O-] [IRAK-1-4 Inhibitor I]
Procedure, shortened: as §1

Target	log2 fold change (erlotinib)	log2 fold change [1]	log2 fold change [2]	log2 fold change [3]	log2 fold change [4]	log2 fold change [5]	log2 fold change [6]	log2 fold change [7]	log2 fold change [8]	log2 fold change (IRAK-1-4 Inhibitor I)
GREB1 (UniProt Q4ZG55)	inactive: 0.068	inactive: 0.022	inactive: 0.04	inactive: 0.088	inactive: -0.057	inactive: -0.314	inactive: -0.083	inactive: 0.291		
HACD2 (UniProt Q6Y1H2)	inactive: 0.063		inactive: 0.078		inactive: -0.019				inactive: -0.026	inactive: -0.113
GSTO1 (UniProt P78417)	inactive: -0.013	inactive: -0.039	inactive: -0.004	inactive: -0.031	inactive: -0.004	inactive: 0.053	inactive: 0.035	inactive: -0.014	inactive: 0.011	inactive: -0.019
GRM5 (UniProt P41594)	inactive: -0.054		inactive: 0.047		inactive: -0.063		inactive: -0.085	inactive: 0.043	inactive: 0.136	inactive: -0.064
GRAMD4 (UniProt Q6IC98)	inactive: 0.074	inactive: 0.091	inactive: -0.002	inactive: 0.03		inactive: -0.178	inactive: -0.008	inactive: 0.147	inactive: 0.163	inactive: 0.066
HBA1 (UniProt P69905)	inactive: 0.053	inactive: -0.02	inactive: -0.059	inactive: 0.044	inactive: 0.03	inactive: 0.036	inactive: 0.03	inactive: 0.081	inactive: -0.019	inactive: -0.012
GRPEL1 (UniProt Q9HAV7)	inactive: 0	inactive: -0.022	inactive: 0.024	inactive: -0.015	inactive: 0.018	inactive: 0.011	inactive: -0.004	inactive: 0.019	inactive: 0.003	inactive: -0.004
GRK5 (UniProt P34947)	inactive: 0.083	inactive: 0.249	inactive: -0.096	inactive: 0.004		inactive: 0.246				
HCFC2 (UniProt Q9Y5Z7)					inactive: -0.01					
H2AFX (UniProt P16104)	inactive: -0.013	inactive: -0.089	inactive: -0.015	inactive: 0.007	inactive: -0.052	inactive: -0.031	inactive: 0.047	inactive: -0.024	inactive: 0.052	inactive: -0.016
GTF2I (UniProt P78347)	inactive: -0.005	inactive: 0.016	inactive: -0.02	inactive: 0.018	inactive: 0.008	inactive: -0.034	inactive: -0.002	inactive: -0.031	inactive: -0.003	inactive: -0.007
HBD (UniProt E9PEW8)		inactive: 0.092		inactive: 0.054		inactive: -0.074				
GSR isoform 5 (UniProt P00390)	inactive: 0.065	inactive: -0.087	inactive: 0.164	inactive: -0.089	inactive: 0.023	inactive: -0.277			inactive: -0.339	inactive: 0.084
HAUS5 (UniProt O94927)	inactive: 0.046	inactive: 0.021	inactive: -0.071	inactive: -0.015	inactive: -0.045	inactive: 0.113	inactive: 0.031	inactive: -0.017	inactive: -0.009	inactive: 0.033
H6PD (UniProt O95479)	inactive: -0.079		inactive: 0.019		inactive: 0.058		inactive: 0.116	inactive: 0.11	inactive: 0.003	inactive: 0.157
GTPBP4 (UniProt Q9BZE4)	inactive: 0.024	inactive: 0.022	inactive: -0.047	inactive: 0.044	inactive: 0.008	inactive: 0.054	inactive: 0.019	inactive: -0.007	inactive: 0.023	inactive: -0.026
HAGH isoform 2 (UniProt Q16775)	inactive: -0.007		inactive: 0.09						inactive: -0.215	inactive: 0.249
GUF1 (UniProt Q8N442)	inactive: 0.147	inactive: -0.148	inactive: -0.095	inactive: 0	inactive: -0.013	inactive: 0.183	inactive: 0.054	inactive: 0.031	inactive: -0.008	inactive: 0.017
HBS1L (UniProt Q9Y450)	inactive: 0.037	inactive: -0.027	inactive: -0.041	inactive: 0.029	inactive: -0.016	inactive: 0.004	inactive: -0.022	inactive: -0.01	inactive: 0.02	inactive: -0.026

In another format: results already given
Target | log2 fold change (erlotinib) | log2 fold change [1] | log2 fold change [2] | log2 fold change [3] | log2 fold change [4] | log2 fold change [5] | log2 fold change [6] | log2 fold change [7] | log2 fold change [8] | log2 fold change (IRAK-1-4 Inhibitor I)
HAGH isoform 2 (UniProt Q16775) | inactive: -0.007 |  | inactive: 0.09 |  |  |  |  |  | inactive: -0.215 | inactive: 0.249
GUF1 (UniProt Q8N442) | inactive: 0.147 | inactive: -0.148 | inactive: -0.095 | inactive: 0 | inactive: -0.013 | inactive: 0.183 | inactive: 0.054 | inactive: 0.031 | inactive: -0.008 | inactive: 0.017

(further entries)

Target	log2 fold change (erlotinib)	log2 fold change [1]	log2 fold change [2]	log2 fold change [3]	log2 fold change [4]	log2 fold change [5]	log2 fold change [6]	log2 fold change [7]	log2 fold change [8]	log2 fold change (IRAK-1-4 Inhibitor I)
GUCD1 isoform 3 (UniProt Q96NT3)	inactive: -0.183		inactive: -0.113						inactive: 0.084	inactive: -0.064
H3-2 (UniProt Q5TEC6)					inactive: -0.078		inactive: -0.092	inactive: -0.064	inactive: 0.111	inactive: -0.082
GRAMD1A (UniProt Q96CP6)	inactive: 0.054		inactive: 0.064							
GSPT1 isoform 2 (UniProt P15170)		inactive: 0.344		inactive: 0		inactive: 0.187				
HBD (UniProt P02042)	inactive: 0.046	inactive: 0.007	inactive: 0.003	inactive: 0.002	inactive: -0.013	inactive: 0.006	inactive: 0.021	inactive: 0.061	inactive: 0.025	inactive: -0.028
HCFC1 (UniProt P51610)	inactive: -0.137	inactive: 0.131	inactive: 0	inactive: -0.014	inactive: 0.15	inactive: -0.153			inactive: -0.024	inactive: 0.179
H3C1 (UniProt P68431)					inactive: 0.828					
GTF2H2C (UniProt Q6P1K8)							inactive: 0.111	inactive: 0.191	inactive: 0.089	inactive: -0.073
HBZ, A0A494C057		inactive: -0.062		inactive: 0.011	inactive: -0.053	inactive: -0.07			inactive: 0.116	inactive: -0.065
HADHB (UniProt P55084)	inactive: -0.108	inactive: -0.039	active: 0.367	inactive: -0.036	inactive: -0.128	inactive: 0.011	inactive: -0.066	inactive: 0.062	inactive: -0.029	inactive: 0.025
GYPA, A0A2R8Y7F9					inactive: 0.066					
GSDME (UniProt O60443)	inactive: 0.073		inactive: 0.011		inactive: -0.004		inactive: -0.062	inactive: -0.046		
GPT2 (UniProt Q8TD30)	inactive: -0.058	inactive: -0.058	inactive: 0.078	inactive: 0.033		inactive: -0.102	inactive: -0.076	inactive: 0.064	inactive: 0.051	inactive: 0.038
HABP4 (UniProt Q5JVS0)					inactive: -0.031					
GSDMD (UniProt P57764)		inactive: 0.351		inactive: 0.063		inactive: 0.249			inactive: 0.054	inactive: -0.221
GPSM3 (UniProt Q9Y4H4)	inactive: 0.069		inactive: 0.098						inactive: -0.006	inactive: 0.029
GTPBP6 (UniProt O43824)		inactive: 0.187		inactive: 0.11		inactive: -0.048	inactive: -0.082	inactive: 0.037		
HAUS4 (UniProt Q9H6D7)	inactive: 0.012	inactive: -0.029	inactive: -0.036	inactive: 0.064	inactive: -0.003	inactive: -0.015	inactive: -0.025	inactive: -0.007	inactive: 0.015	inactive: -0.016
HAL (UniProt P42357)	inactive: 0.082		inactive: -0.259				inactive: -0.164	inactive: -0.129	inactive: -0.048	inactive: -0.193
